According to patent publication US20160032257A1, “AGENT AND METHOD FOR MODIFYING THE 5' CAP OF RNA” (UNIVERSITÄT HAMBURG, priority 2012, published 2016):
At least one compound was matched to its structure with a doubt left.

By UniProt entry, the sequences of proteins in these tests, tags left out.
UniProt A8BW33, whole entry V34A: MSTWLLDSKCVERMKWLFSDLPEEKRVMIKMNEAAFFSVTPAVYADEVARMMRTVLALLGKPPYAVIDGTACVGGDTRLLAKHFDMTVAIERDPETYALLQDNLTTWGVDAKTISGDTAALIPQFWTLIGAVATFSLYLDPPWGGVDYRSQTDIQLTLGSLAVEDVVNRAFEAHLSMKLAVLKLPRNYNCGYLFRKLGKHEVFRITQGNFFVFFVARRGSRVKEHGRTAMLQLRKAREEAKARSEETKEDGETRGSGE

Biological target: T1, Giardia lamblia trimethylguanosine synthase 2 (GlaTgs2) variant GlaTgs2-V34A (V34A), SEQ ID NO: 4 (Giardia duodenalis, UniProt A8BW33, V34A)
T1 construct: HPLC-coupled cap N2 methyl/alkyl transfer assay with m7GpppA, helper enzymes MTAN and LuxS
Assay: Enzymatic parameters of GlaTgs2-V34A with respect to AdoPropen and AdoMet (HPLC-coupled activity assay)
Assay type: biochemical
Settings: GlaTgs2-V34A compared with the wild type enzyme
Procedure: The transfer of the propenyl (AdoPropen), pentenynyl (AdoEnYn) and benzyl (AdoBenzyl) residues carried by the synthetically produced AdoMet analogues onto the N2 atom of the guanosine of m^7GpppA (A=adenine) enzymatically catalysed by the WT-GlaTgs2 (SEQ ID NO: 1) and the proteins of the invention in accordance with SEQ ID NOs: 4-10 was investigated with the aid of a HPLC-coupled activity assay.
Reaction buffer 2: 50 mM Tris; 10 mM MgCl2; 100 mM NH4OAc; pH 8.4
MTAN stands for 5′-methylthioadenosine/S-adenosylhomocysteine nucleosidase. LuxS stands for S-ribosylhomocysteine lyase.
The quantities were adjusted in proportion for larger samples of 10 or 20 μL. The quantity of AdoMet analogue used was matched such that the area of the peak in the chromatogram for a diastereoisomer of the AdoMet analogue corresponded to the area of the signal caused by m^7GpppA. The reaction was in general stopped directly after starting the reaction (t0) and after three hours at 37° C. (t180) and examined using analytical HPLC as well as MALDI-TOF.

SMILES: C[S+](CC[C@H](N)C(=O)[O-])C[C@H]1O[C@@H](n2cnc3c(N)ncnc32)[C@H](O)[C@@H]1O (stereo partly drawn) [AdoMet, S-adenosyl-L-methionine, reference compound]
- kinetic parameters for AdoMet: corresponded to those of the wild type enzyme
